# The supplement of paper PMC8728848
# Some of the results follow.
# B1: Epa19 (Candida glabrata) (protein)
# chain: MGSSHHHHHHSSGLVPRGSHMASSKDPTRFPIGCSPQVLKTQPGLAVKLYSYGHPVPGCSYITYQYPDFPRSGYKKERKLADITGVNGKIDIDLKPNDPCRVLTGHLPSNYNYPDTLTYTNFTMILYGYFQPKVTGYHTFNLEADDLLFMNLGAGNAFDCCKAESTLDNFGNYQSYSLWGSDYAKANITVFLVSGVYYPIRLFYVNRDNNAVIDFSFTTEFDKEKVHDFTSYFFSASDGEQCPGSV
# Key:
# Test in all cases: glycan array binding signal (z-score within array); higher = stronger binding
# Settings in all cases: glycan notation: IUPAC condensed, linker removed
# [1] = molecular target: Gal(b1-4)GlcNAc(b1-6)Gal(b1-4)GlcNAc
# Procedure, shortened: (§1)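 Glycan array data were curated from 3228 arrays in the Consortium for Functional Glycomics database and kept only where the protein sequence was available. Glycan names were converted to IUPAC-condensed notation, and columns mapping to the same glycan were averaged. The binding signal is a within-array Z-score, averaged across arrays of the same protein sequence at different concentrations or buffers and across linkers. Negative Z-scores can be read as non-binding.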
# [2] = molecular target: Gal(b1-4)GlcNAc(b1-6)GalNAc
# Procedure, shortened: as §1
# [3] = molecular target: Gal(b1-4)GlcNAc(b1-6)[Gal(b1-3)]GalNAc
# Procedure, shortened: as §1
# [4] = molecular target: Gal(b1-4)GlcNAc(b1-6)[Gal(b1-4)GlcNAc(b1-3)]GalNAc
# Procedure, shortened: as §1
# Gal(b1-4)GlcNAc6P = molecular target: Gal(b1-4)GlcNAc6P
# Procedure, shortened: as §1
# Gal(b1-6)Gal = molecular target: Gal(b1-6)Gal
# Procedure, shortened: as §1
# Gal3S(b1-3)GalNAc = molecular target: Gal3S(b1-3)GalNAc
# Procedure, shortened: as §1
# Gal3S(b1-3)GlcNAc = molecular target: Gal3S(b1-3)GlcNAc
# Procedure, shortened: as §1
# [5] = molecular target: Gal3S(b1-3)[Fuc(a1-4)]GlcNAc
# Procedure, shortened: as §1
# Gal3S(b1-4)Glc = molecular target: Gal3S(b1-4)Glc
# Procedure, shortened: as §1
# Gal3S(b1-4)Glc6S = molecular target: Gal3S(b1-4)Glc6S
# Procedure, shortened: as §1
# Gal3S(b1-4)GlcNAc = molecular target: Gal3S(b1-4)GlcNAc
# Procedure, shortened: as §1
# [6] = molecular target: Gal3S(b1-4)[Fuc(a1-3)]Glc6S
# Procedure, shortened: as §1
# [7] = molecular target: Gal3S(b1-4)[Fuc(a1-3)]GlcNAc
# Procedure, shortened: as §1
# [8] = molecular target: Gal3S(b1-4)[Fuc(a1-3)]GlcNAc6S
# Procedure, shortened: as §1
# Gal3S4S(b1-4)GlcNAc = molecular target: Gal3S4S(b1-4)GlcNAc
# Procedure, shortened: as §1
# Gal3S6S(b1-4)GlcNAc = molecular target: Gal3S6S(b1-4)GlcNAc
# Procedure, shortened: as §1
# Gal3S6S(b1-4)GlcNAc6S = molecular target: Gal3S6S(b1-4)GlcNAc6S
# Procedure, shortened: as §1
# Gal4S(b1-4)GlcNAc = molecular target: Gal4S(b1-4)GlcNAc
# Procedure, shortened: as §1
# Gal4S6S(b1-4)GlcNAc = molecular target: Gal4S6S(b1-4)GlcNAc
# Procedure, shortened: as §1
# Gal6P(b1-4)GlcNAc = molecular target: Gal6P(b1-4)GlcNAc
# Procedure, shortened: as §1
# Gal6S(b1-3)GlcNAc = molecular target: Gal6S(b1-3)GlcNAc
# Procedure, shortened: as §1
# Gal6S(b1-3)GlcNAc6S = molecular target: Gal6S(b1-3)GlcNAc6S
# Procedure, shortened: as §1
# Gal6S(b1-4)Glc = molecular target: Gal6S(b1-4)Glc
# Procedure, shortened: as §1
# Gal6S(b1-4)Glc6S = molecular target: Gal6S(b1-4)Glc6S
# Procedure, shortened: as §1
# Gal6S(b1-4)GlcNAc = molecular target: Gal6S(b1-4)GlcNAc
# Procedure, shortened: as §1
# Gal6S(b1-4)GlcNAc6S = molecular target: Gal6S(b1-4)GlcNAc6S
# Procedure, shortened: as §1
# GalNAc(a1-3)Gal = molecular target: GalNAc(a1-3)Gal
# Procedure, shortened: as §1
# GalNAc(a1-3)GalNAc = molecular target: GalNAc(a1-3)GalNAc
# Procedure, shortened: as §1
# [9] = molecular target: GalNAc(a1-3)GalNAc(b1-3)Gal(a1-4)Gal(b1-4)Glc
# Procedure, shortened: as §1
# [10] = molecular target: GalNAc(a1-3)GalNAc(b1-3)Gal(a1-4)Gal(b1-4)GlcNAc
# Procedure, shortened: as §1
# GalNAc(b1-3)Gal = molecular target: GalNAc(b1-3)Gal
# Procedure, shortened: as §1
# [11] = molecular target: GalNAc(b1-3)Gal(a1-4)Gal(b1-4)GlcNAc
# Procedure, shortened: as §1
# [12] = molecular target: GalNAc(b1-3)Gal(a1-4)Gal(b1-4)GlcNAc(b1-3)Gal(b1-4)Glc
# Procedure, shortened: as §1
# [13] = molecular target: GalNAc(b1-3)Gal(a1-6)Gal(b1-4)Glc
# Procedure, shortened: as §1
# GalNAc(b1-3)GalNAc = molecular target: GalNAc(b1-3)GalNAc
# Procedure, shortened: as §1
# GalNAc(b1-3)GlcNAc = molecular target: GalNAc(b1-3)GlcNAc
# Procedure, shortened: as §1
# GalNAc(b1-4)Gal(b1-4)Glc = molecular target: GalNAc(b1-4)Gal(b1-4)Glc
# Procedure, shortened: as §1
binder,measurement,setting,value
B1,glycan array binding signal (z-score),[1],-0.361
same,glycan array binding signal (z-score),[2],-0.146
same,glycan array binding signal (z-score),[3],0.35
same,glycan array binding signal (z-score),[4],-0.241
same,glycan array binding signal (z-score),Gal(b1-4)GlcNAc6P,-0.08
same,glycan array binding signal (z-score),Gal(b1-6)Gal,-0.918
same,glycan array binding signal (z-score),Gal3S(b1-3)GalNAc,0.085
same,glycan array binding signal (z-score),Gal3S(b1-3)GlcNAc,-0.194
same,glycan array binding signal (z-score),[5],0.786
same,glycan array binding signal (z-score),Gal3S(b1-4)Glc,-0.076
same,glycan array binding signal (z-score),Gal3S(b1-4)Glc6S,-0.025
same,glycan array binding signal (z-score),Gal3S(b1-4)GlcNAc,-1.08
same,glycan array binding signal (z-score),[6],0.933
same,glycan array binding signal (z-score),[7],0.047
same,glycan array binding signal (z-score),[8],0.49
same,glycan array binding signal (z-score),Gal3S4S(b1-4)GlcNAc,-1.09
same,glycan array binding signal (z-score),Gal3S6S(b1-4)GlcNAc,0.045
same,glycan array binding signal (z-score),Gal3S6S(b1-4)GlcNAc6S,1
same,glycan array binding signal (z-score),Gal4S(b1-4)GlcNAc,-1.34
same,glycan array binding signal (z-score),Gal4S6S(b1-4)GlcNAc,-0.315
same,glycan array binding signal (z-score),Gal6P(b1-4)GlcNAc,-0.144
same,glycan array binding signal (z-score),Gal6S(b1-3)GlcNAc,0.248
same,glycan array binding signal (z-score),Gal6S(b1-3)GlcNAc6S,-1.01
same,glycan array binding signal (z-score),Gal6S(b1-4)Glc,-0.415
same,glycan array binding signal (z-score),Gal6S(b1-4)Glc6S,0.414
same,glycan array binding signal (z-score),Gal6S(b1-4)GlcNAc,-0.372
same,glycan array binding signal (z-score),Gal6S(b1-4)GlcNAc6S,1.08
same,glycan array binding signal (z-score),GalNAc(a1-3)Gal,-0.246
same,glycan array binding signal (z-score),GalNAc(a1-3)GalNAc,0.221
same,glycan array binding signal (z-score),[9],-0.569
same,glycan array binding signal (z-score),[10],0.017
same,glycan array binding signal (z-score),GalNAc(b1-3)Gal,-0.489
same,glycan array binding signal (z-score),[11],-0.192
same,glycan array binding signal (z-score),[12],-0.123
same,glycan array binding signal (z-score),[13],-0.525
same,glycan array binding signal (z-score),GalNAc(b1-3)GalNAc,-0.712
same,glycan array binding signal (z-score),GalNAc(b1-3)GlcNAc,-0.112
same,glycan array binding signal (z-score),GalNAc(b1-4)Gal(b1-4)Glc,0.655

# Reprinted at random: two entries already listed
binder,measurement,setting,value
B1,glycan array binding signal (z-score),Gal6S(b1-3)GlcNAc,0.248
same,glycan array binding signal (z-score),Gal6S(b1-4)Glc6S,0.414
